Laboratory results as given in patent US12187755B2, “Minimal saponin analogues, synthesis and use thereof” (MEMORIAL SLOAN-KETTERING CANCER CENTER, priority 2014, dated 2025).
Some entries share one result that the patent states for a list of compounds.

test: toxicity assessment by mouse weight loss after first vaccination; assay type: in vivo; conditions: four-component vaccine, one week after first injection
Description: Groups of five mice (C57BL/6J, female, 6-8 weeks of age) were vaccinated with a three-component vaccine consisting of MUC1-KLH ([…]) and OVA ([…]), or a four-component vaccine that also included GD3-KLH ([…]). Antigens were co-administered with the adjuvant of interest ([…]) or without adjuvant (no-adjuvant control) in phosphate buffered saline (PBS, […]) via subcutaneous injections on days 0, 7, and 14, followed by a booster on day 65. Mouse sera were collected at day 72 and antibody titers against each antigen were determined by ELISA. Statistical significance of each antibody response compared to the no-adjuvant control was assessed using a two-tailed unpaired Student's t-test with CI=95%. As an initial, general assessment of toxicity, mouse weight loss was monitored on days 0, 1, 2, 3, and 7 after the first vaccination. These animal experiments were conducted as described in MSKCC Institutional Animal Care and Use Committee (IACUC) protocol #97-11-051.

SMILES	toxicity (mouse weight loss)
C[C@H]1O[C@@H](OC2C(O)C(NC(=O)CCCCCNC(=O)c3ccc(I)cc3)[C@H](CO)O[C@H]2OC(=O)C23CCC(C)(C)CC2C2=CCC4C5(C)CC[C@H](O)C(C)(C)[C@@H]5CC[C@]4(C)[C@]2(C)C[C@@H]3O)C(O)C(O)C1O[C@@H]1OCC(O)C(O)C1O (stereo partly drawn) [compound 20]	lack of toxicity
C[C@H]1O[C@@H](OC2C(O)C(NC(=O)CCCCCNC(=O)c3ccc(I)cc3)[C@H](CO)O[C@H]2OC(=O)[C@]23CCC(C)(C)CC2C2=CCC4C5(C)CC[C@H](O)[C@](C)(CO)[C@@H]5CC[C@]4(C)[C@]2(C)CC3O)C(O)C(O)C1O[C@@H]1OCC(O)C(O)C1O (stereo partly drawn) [compound 19]	lack of toxicity
C[C@H]1O[C@@H](OC2C(O)C(NC(=O)CCCCCNC(=O)c3ccc(I)cc3)[C@H](CO)O[C@H]2OC(=O)C23CCC(C)(C)CC2C2=CCC4C5(C)CC[C@H](O)[C@](C)(C=O)[C@@H]5CC[C@]4(C)[C@]2(C)CC3)C(O)C(O)C1O[C@@H]1OCC(O)C(O)C1O (stereo partly drawn) [compound 21]	lack of toxicity
